Assay results from US4529737A, “Analgesic and anti-inflammatory arylalkanoic acid phthalidyl esters and pharmaceutical compositions thereof” (priority 1979, dated 1985).

Tests used:
in vivo [1] = conditions: mouse
in vivo [2] = conditions: rat

COc1ccc2cc([C@H](C)C(=O)O)ccc2c1 [Compound II, d-2-(6-methoxy-2-naphthyl)propionic acid, reference compound]
LD50 (in vivo [1]): 1190 mg/kg
LD50 (in vivo [2]): 575 mg/kg
